This is an account of results in publication PMC5117851.

These are yes or no findings as the source states them, for the method shown. Binding seen in cells or lysates may run through a third protein. Some entries that bind do so weakly or less than the wild type.

In test [1] the target is Axl receptor tyrosine kinase (human (endogenous in SNB-19)) (UniProt P30530). Put plainly: co-IP; endogenous proteins in SNB-19 lysate (IP lysis buffer), with or without EGF (50 ng/ml, 5 min) before lysis; 2 ug Axl or EGFR IP antibody, 2 h at room temperature, protein A/G-agarose beads; western blot.
The target in test [2] is Axl in the BiFC vector pDEST-ORF-V1 (UniProt P30530). Kind of test: split reporter; Venus BiFC in HEK-293T cells transfected with Axl in pDEST-ORF-V1 and EGFR in pDEST-ORF-V2, 16 h; confocal microscopy and high-content single cell fluorescence; with or without EGF, with or without gefitinib.

On to “EGFR (from UniProt P00533 25-1210) (receptor)”, for which the binding entry in test [1] was “binds”.
In the case of “EGFR in the BiFC vector pDEST-ORF-V2 (from UniProt P00533 25-1210) (receptor)”, the binding result in test [2] is “binds”.
